Assay results from article PMC8773632.
These are yes or no findings as the source states them, for the method shown. In cells and extracts the contact can be indirect. Some entries that bind do so weakly or less than the wild type.

Amino acid sequences for entries named in this document (tags omitted).
UniProt P51587: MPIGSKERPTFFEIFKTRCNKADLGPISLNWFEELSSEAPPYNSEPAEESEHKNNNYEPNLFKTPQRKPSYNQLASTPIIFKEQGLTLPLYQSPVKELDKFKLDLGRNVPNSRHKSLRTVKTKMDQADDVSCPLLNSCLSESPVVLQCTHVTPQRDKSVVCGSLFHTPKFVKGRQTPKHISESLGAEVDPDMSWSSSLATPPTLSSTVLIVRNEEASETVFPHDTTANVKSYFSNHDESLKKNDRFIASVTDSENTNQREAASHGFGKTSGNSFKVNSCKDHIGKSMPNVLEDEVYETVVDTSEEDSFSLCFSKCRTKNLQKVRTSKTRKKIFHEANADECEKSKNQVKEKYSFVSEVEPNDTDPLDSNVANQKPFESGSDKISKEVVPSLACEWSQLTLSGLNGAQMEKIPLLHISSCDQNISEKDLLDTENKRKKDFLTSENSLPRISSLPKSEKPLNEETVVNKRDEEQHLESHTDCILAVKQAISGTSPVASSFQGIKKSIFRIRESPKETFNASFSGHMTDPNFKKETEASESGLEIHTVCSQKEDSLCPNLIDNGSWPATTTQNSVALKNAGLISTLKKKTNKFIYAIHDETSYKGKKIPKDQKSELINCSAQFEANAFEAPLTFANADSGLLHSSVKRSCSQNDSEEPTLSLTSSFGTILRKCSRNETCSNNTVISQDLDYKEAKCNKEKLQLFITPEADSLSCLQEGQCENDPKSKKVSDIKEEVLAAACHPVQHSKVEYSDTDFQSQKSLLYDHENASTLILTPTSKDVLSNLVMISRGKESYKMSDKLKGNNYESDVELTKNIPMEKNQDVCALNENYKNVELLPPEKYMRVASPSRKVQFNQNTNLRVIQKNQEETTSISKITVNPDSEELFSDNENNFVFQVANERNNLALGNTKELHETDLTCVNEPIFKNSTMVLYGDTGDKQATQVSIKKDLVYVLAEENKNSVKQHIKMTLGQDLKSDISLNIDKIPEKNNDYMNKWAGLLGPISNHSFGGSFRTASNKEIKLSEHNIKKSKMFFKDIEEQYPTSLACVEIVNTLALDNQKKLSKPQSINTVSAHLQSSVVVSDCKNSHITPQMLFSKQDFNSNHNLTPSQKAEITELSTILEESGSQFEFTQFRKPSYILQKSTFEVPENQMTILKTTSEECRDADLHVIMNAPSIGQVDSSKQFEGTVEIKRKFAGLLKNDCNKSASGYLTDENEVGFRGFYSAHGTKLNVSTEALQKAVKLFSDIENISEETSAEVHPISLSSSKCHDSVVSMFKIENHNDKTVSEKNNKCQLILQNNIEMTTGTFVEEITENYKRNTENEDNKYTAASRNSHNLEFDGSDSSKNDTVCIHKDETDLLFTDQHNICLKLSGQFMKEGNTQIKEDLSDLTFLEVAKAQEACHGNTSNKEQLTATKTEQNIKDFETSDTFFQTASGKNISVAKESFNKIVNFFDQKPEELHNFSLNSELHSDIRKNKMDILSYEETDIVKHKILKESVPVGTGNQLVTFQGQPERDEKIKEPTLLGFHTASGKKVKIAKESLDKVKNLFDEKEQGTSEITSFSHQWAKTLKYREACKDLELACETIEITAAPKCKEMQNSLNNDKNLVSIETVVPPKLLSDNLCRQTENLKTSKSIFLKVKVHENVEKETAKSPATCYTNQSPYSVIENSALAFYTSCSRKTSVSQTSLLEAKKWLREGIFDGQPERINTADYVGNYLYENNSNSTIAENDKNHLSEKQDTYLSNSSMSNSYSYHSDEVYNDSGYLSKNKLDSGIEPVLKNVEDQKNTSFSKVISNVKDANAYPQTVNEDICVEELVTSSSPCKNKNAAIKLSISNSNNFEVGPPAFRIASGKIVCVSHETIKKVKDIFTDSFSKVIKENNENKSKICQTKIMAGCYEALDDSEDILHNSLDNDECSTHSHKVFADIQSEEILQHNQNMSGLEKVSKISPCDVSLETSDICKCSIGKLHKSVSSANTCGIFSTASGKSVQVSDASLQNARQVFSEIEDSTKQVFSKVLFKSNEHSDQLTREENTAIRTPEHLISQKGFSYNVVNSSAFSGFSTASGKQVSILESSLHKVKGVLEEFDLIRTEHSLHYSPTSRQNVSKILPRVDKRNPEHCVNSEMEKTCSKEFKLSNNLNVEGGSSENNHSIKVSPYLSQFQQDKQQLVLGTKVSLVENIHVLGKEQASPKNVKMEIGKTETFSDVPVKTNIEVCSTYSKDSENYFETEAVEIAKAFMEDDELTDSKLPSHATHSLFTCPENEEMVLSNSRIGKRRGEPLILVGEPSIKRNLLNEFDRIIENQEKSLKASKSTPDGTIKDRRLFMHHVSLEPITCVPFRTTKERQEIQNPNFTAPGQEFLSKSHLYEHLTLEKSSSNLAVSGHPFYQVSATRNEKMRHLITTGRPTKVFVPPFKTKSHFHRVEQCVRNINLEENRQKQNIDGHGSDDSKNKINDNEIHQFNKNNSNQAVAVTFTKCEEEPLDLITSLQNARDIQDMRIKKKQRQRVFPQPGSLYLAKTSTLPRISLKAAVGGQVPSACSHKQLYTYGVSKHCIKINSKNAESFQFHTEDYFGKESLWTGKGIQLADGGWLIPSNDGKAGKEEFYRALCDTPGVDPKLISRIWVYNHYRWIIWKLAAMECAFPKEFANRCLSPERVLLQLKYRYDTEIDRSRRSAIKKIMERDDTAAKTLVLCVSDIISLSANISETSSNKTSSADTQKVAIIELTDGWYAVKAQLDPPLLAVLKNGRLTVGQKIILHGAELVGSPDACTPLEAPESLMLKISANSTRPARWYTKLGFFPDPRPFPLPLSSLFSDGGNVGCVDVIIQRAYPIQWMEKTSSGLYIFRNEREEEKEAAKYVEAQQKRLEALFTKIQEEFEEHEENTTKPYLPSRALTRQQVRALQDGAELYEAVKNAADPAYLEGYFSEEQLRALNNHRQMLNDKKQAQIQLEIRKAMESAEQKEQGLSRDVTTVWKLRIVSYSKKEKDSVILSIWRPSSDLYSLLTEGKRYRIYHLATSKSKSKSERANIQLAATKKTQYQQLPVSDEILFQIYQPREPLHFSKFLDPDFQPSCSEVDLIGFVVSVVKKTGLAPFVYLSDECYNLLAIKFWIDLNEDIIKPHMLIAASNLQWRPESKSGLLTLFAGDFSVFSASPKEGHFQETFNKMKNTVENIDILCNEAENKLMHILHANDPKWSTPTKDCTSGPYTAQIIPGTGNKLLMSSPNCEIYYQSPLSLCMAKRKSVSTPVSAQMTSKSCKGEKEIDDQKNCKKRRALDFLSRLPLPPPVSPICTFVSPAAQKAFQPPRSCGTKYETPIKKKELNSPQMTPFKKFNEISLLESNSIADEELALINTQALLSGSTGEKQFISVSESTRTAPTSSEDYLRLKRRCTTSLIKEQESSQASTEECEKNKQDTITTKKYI

Experiments:
Flag-tagged BRCA2 [1] = target: Flag-tagged BRCA2 (UniProt P51587); experiment: condition: only cells left untreated (not synchronized in the S-phase); co-IP; HEK 293T cells expressing Flag-BRCA2, left untreated (not synchronised); IP with anti-Flag M2 antibody, immunoblot with CDK5RAP3 antibody
[2] = target: BRCA2, endogenous in HEK 293T cells (human (endogenous in HEK 293T)) (UniProt P51587); experiment: co-IP; untransfected HEK 293T cells synchronized to S-phase with 2 mM hydroxyurea for 18 h; IP with anti-BRCA2 antibody, immunoblot with CDK5RAP3 antibody
Flag-tagged BRCA2 [3] = target: Flag-tagged BRCA2 (UniProt P51587); experiment: co-IP; HEK 293T cells expressing Flag-BRCA2, double thymidine block (10 mM) followed by a 9 h release to enrich S-phase cells; IP with anti-Flag M2 antibody, immunoblot with CDK5RAP3 antibody
[4] = target: BRCA2, endogenous in HEK 293T cells (human (endogenous in HEK 293T)) (UniProt P51587); experiment: condition: only cells left untreated (not synchronized in the S-phase); co-IP; untransfected HEK 293T cells left untreated (not synchronised); IP with anti-BRCA2 antibody, immunoblot with CDK5RAP3 antibody

- binding (Flag-tagged BRCA2 [1]): no binding
- binding [2]: binds
- binding (Flag-tagged BRCA2 [3]): binds
- binding [4]: no binding
B1: CDK5RAP3, endogenous in HEK 293T cells (protein, UniProt Q96JB5 1-506)
chain: MEDHQHVPIDIQTSKLLDWLVDRRHCSLKWQSLVLTIREKINAAIQDMPESEEIAQLLSGSYIHYFHCLRILDLLKGTEASTKNIFGRYSSQRMKDWQEIIALYEKDNTYLVELSSLLVRNVNYEIPSLKKQIAKCQQLQQEYSRKEEECQAGAAEMREQFYHSCKQYGITGENVRGELLALVKDLPSQLAEIGAAAQQSLGEAIDVYQASVGFVCESPTEQVLPMLRFVQKRGNSTVYEWRTGTEPSVVERPHLEELPEQVAEDAIDWGDFGVEAVSEGTDSGISAEAAGIDWGIFPESDSKDPGGDGIDWGDDAVALQITVLEAGTQAPEGVARGPDALTLLEYTETRNQFLDELMELEIFLAQRAVELSEEADVLSVSQFQLAPAILQGQTKEKMVTMVSVLEDLIGKLTSLQLQHLFMILASPRYVDRVTEFLQQKLKQSQLLALKKELMVQKQQEALEEQAALEPKLDLLLEKTKELQKLIEADISKRYSGRPVNLMGTSL
